Fluorescence response (% of DMSO) data for three compounds are collected here from PubChem BioAssay AID504580 (NMMLSC, 2011).

Out of some 2,000 compounds screened, fewer than 10 were called active.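 Rule for the calls: active = compounds that quench the bead-bound fluorescent RNA probe, cutting fluorescence to under half of the solvent control; inactive = the rest.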 This is a selection; strong and weak results do not stand in their true shares.

This assay is described as follows: fluorescent RNA aptamer quenching, single concentration, confirmation, artefact control for GRK2 RNA aptamer inhibitor project, biochemical, single point, cherry pick 1, flow cytometry (AID 504580).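 Note: counterscreen run without GRK2 so only probe quenching by compound is measured.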 To be noted: Carboxyfluorescein RNA aptamer on beads, at 10 µM, hits give low values. In general terms: In flow cytometry, cells or beads pass a laser one at a time.
For `Cc1c(C(=O)O)cccc1-n1c(C)cc(/C=C2\C(=O)NC(=O)N(c3ccc4c(c3)OCO4)C2=O)c1C`, the fluorescence response (% of DMSO) was inactive: 99.4%.

Regarding `Nc1ccc2ccc3cccc[n+]3c2c1`, the fluorescence response (% of DMSO) is active: 44.3%.

Regarding `O=C1NC(=O)N(Cc2ccco2)C(=O)/C1=C\c1cccn1CCOc1ccccc1`, the fluorescence response (% of DMSO) was inactive: 102%.
